Data published in publication PMC7819943, “Rice protein-binding microarrays: a tool to detect cis-acting elements near promoter regions in rice”.
The list shows a part of the results.

Sequences of proteins named here, by UniProt entry; tags and fusion partners are left off.
UniProt Q0JBA9, entry or part of it: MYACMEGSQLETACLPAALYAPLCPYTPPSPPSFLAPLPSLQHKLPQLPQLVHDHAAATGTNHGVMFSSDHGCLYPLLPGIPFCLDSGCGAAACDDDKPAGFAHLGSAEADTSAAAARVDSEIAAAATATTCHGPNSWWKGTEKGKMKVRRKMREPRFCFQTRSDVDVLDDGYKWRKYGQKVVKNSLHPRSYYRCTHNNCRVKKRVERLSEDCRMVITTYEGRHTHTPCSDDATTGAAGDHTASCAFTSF

Target: OsWRKY34 (Oryza sativa, UniProt Q0JBA9 1-250)
Test: protein-binding microarray (RPBM); PBS, 2% BSA, 51.3 ng/ul salmon testes DNA, 50 uM zinc acetate, 200 nM TF, 25 C, 1 h; high values mean tight binding
Settings: protein: recombinant; tags: N-terminal polyhistidine and DsRed monomer fusion (pET32a); label: CyDye5-dUTP incorporated in the synthesized complementary strand; 3' TTTTT single-stranded linker to array surface; dsDNA, one strand shown
Procedure, shortened: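 A custom Agilent array was converted to double-stranded form by primer extension with Cy5-dUTP and blocked with 2% BSA. Protein at 200 nM in PBS with 2% BSA, salmon testes DNA and 50 µM zinc acetate was applied for 1 h at 25 °C, followed by washing. The proteins were polyhistidine–DsRed N-terminal fusions of transcription factors, expressed in E. coli BL21-CodonPlus and Ni–NTA-purified. The binding signal is per-feature fluorescence intensity (arbitrary units) from an Axon 4000B scanner.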

Question: For “GGGGTGGTCTTGTCCTCTACAGGCTCTCCTCCAATCCAACCGGAGTCACCTAGTGCAG”, which binding signal is on record?
Answer: 15000 fluorescence intensity (a.u.)

Question: “TGATGTTGACTAAATTAAGGTGACTATCACCTCCACTATACGGAGTCACCTAGTGCAG” was tested. Which binding signal did it give?
Answer: 8960 fluorescence intensity (a.u.)

Question: Which binding signal does the source give for “GCTGCTGTACTACCCAGGTTGATGCCATGCCACTCCTATACGGAGTCACCTAGTGCAG” here?
Answer: 8140 fluorescence intensity (a.u.)

Question: For “ATCCCTAGGTAAACCACCACCAGCACCACCATGGCTCTAACGGAGTCACCTAGTGCAG”, which binding signal is on record?
Answer: 11300 fluorescence intensity (a.u.)

Question: With “CCACCCATCTCGGCCGGAATCTCCTCCACCACGCCGTCCTCGGAGTCACCTAGTGCAG” as the sequence, how does the binding signal read?
Answer: 8350 fluorescence intensity (a.u.)

Question: “GGGGACACAAATTATGTCGTAGGATGCAATGTTATTTTTTCGGAGTCACCTAGTGCAG” was tested. Which binding signal did it give?
Answer: 8460 fluorescence intensity (a.u.)

Question: For “TCACTTATTAACTGCTTCAGTCTCAATGTCTTGTAAGTTACGGAGTCACCTAGTGCAG”, which binding signal is on record?
Answer: 9080 fluorescence intensity (a.u.)

Question: For “TTGCTCTCACATTTCGTGCACTACATCTTCTCGGTGGTCCCGGAGTCACCTAGTGCAG”, which binding signal is on record?
Answer: 8380 fluorescence intensity (a.u.)

Question: “AGTAGTATGATATTTACTTCAATTTCTTTTAGGGCTTGTTCGGAGTCACCTAGTGCAG” was tested. Which binding signal did it give?
Answer: 9940 fluorescence intensity (a.u.)

Question: For “TGCACCGATTTTTCTCGATATCATTCCATACGCGACCGCACGGAGTCACCTAGTGCAG”, which binding signal is on record?
Answer: 8210 fluorescence intensity (a.u.)

Question: Which binding signal does the source give for “CTTTGGCTTCTAGGTTGTATTGGGGTGTAACATTTGCGATCGGAGTCACCTAGTGCAG” here?
Answer: 9860 fluorescence intensity (a.u.)

Question: With “ATTACTCAAGCAATCATGTTCATGACAAATACCATCGCCACGGAGTCACCTAGTGCAG” as the sequence, how does the binding signal read?
Answer: 8860 fluorescence intensity (a.u.)

Question: “GGGTGGTCCTGCTTCTACCTTGTATACAAAACATTTCTTCCGGAGTCACCTAGTGCAG” was tested. Which binding signal did it give?
Answer: 17000 fluorescence intensity (a.u.)

Question: “TCAGAACCAACCGCTTCCCTTTTACTGTCACTGGCTGTTGCGGAGTCACCTAGTGCAG” was tested. Which binding signal did it give?
Answer: 9650 fluorescence intensity (a.u.)

Question: How did the binding signal turn out when “TTAGATAATGGGTTAGGAGGGATGGGATTGGGACAAAGATCGGAGTCACCTAGTGCAG” was run?
Answer: 11600 fluorescence intensity (a.u.)

Question: How did the binding signal turn out when “TTTGACGTCATCGTATCTAAAGCTATTCCGTTCGTTATCCCGGAGTCACCTAGTGCAG” was run?
Answer: 9260 fluorescence intensity (a.u.)

Question: How did the binding signal turn out when “CTCATTTCGATTTGTATCGGTGCGGCGCGGAGCGAGTCCCCGGAGTCACCTAGTGCAG” was run?
Answer: 8670 fluorescence intensity (a.u.)

Question: “GACTTTGGCTCGACACATGACTGCTTGACTGCTTGTTTTTCGGAGTCACCTAGTGCAG” was tested. Which binding signal did it give?
Answer: 9970 fluorescence intensity (a.u.)

Question: With “TTCCATGGCATCCATGTCAACGTCATATCATTTGATTGTACGGAGTCACCTAGTGCAG” as the sequence, how does the binding signal read?
Answer: 8130 fluorescence intensity (a.u.)

Question: With “GTGAAACCCCTCTATCCTTCGGTGTTTGCCTTCAACTTTCCGGAGTCACCTAGTGCAG” as the sequence, how does the binding signal read?
Answer: 9980 fluorescence intensity (a.u.)

Question: How did the binding signal turn out when “TTTAGAAATTGAGTTTTTGGGTGGAGGGAGTATACAGGAACGGAGTCACCTAGTGCAG” was run?
Answer: 8960 fluorescence intensity (a.u.)

Question: “GCATCTCCGTCTCGCTGCATTGACCTGTCGCCGTTTGTACCGGAGTCACCTAGTGCAG” was tested. Which binding signal did it give?
Answer: 10100 fluorescence intensity (a.u.)

Question: For “ATGGTTCGTGCGGACTCGGCGTCGGTGAGGTGGGCGGGCTCGGAGTCACCTAGTGCAG”, which binding signal is on record?
Answer: 8490 fluorescence intensity (a.u.)

Question: Which binding signal does the source give for “TACATGCCATCTCCATCAGATTCCATCGACCATTGGGACCCGGAGTCACCTAGTGCAG” here?
Answer: 8700 fluorescence intensity (a.u.)

Question: How did the binding signal turn out when “AGCTAGATGTCTCTTTTTGTTTGACTTTGCCTCTCTTGATCGGAGTCACCTAGTGCAG” was run?
Answer: 9280 fluorescence intensity (a.u.)

Question: Which binding signal does the source give for “CCGGCGTCACCAGCCCACCACCGGTCTCCACCGCCACCCTCGGAGTCACCTAGTGCAG” here?
Answer: 11400 fluorescence intensity (a.u.)

Question: With “TCCTTTTCCGCCATCTTTTTATCCCAAGAGCATATTTTCCCGGAGTCACCTAGTGCAG” as the sequence, how does the binding signal read?
Answer: 8270 fluorescence intensity (a.u.)

Question: Which binding signal does the source give for “ACAAGTTCCCTTGTTCCCTTTGTAACCTGTATTTTCTACCCGGAGTCACCTAGTGCAG” here?
Answer: 10100 fluorescence intensity (a.u.)

Question: With “ACGACAAGAACCACCTCTCTCTCTCTCTCTCACTGTCCACCGGAGTCACCTAGTGCAG” as the sequence, how does the binding signal read?
Answer: 9040 fluorescence intensity (a.u.)

Question: “TCTTTTTATAGTCAAATTTACTATTTTTGTTTCTATTTGTCGGAGTCACCTAGTGCAG” was tested. Which binding signal did it give?
Answer: 13400 fluorescence intensity (a.u.)

Question: Which binding signal does the source give for “TGGTTTAAATTTAGGTTTGGTGTGTGATCTGTACTACCCACGGAGTCACCTAGTGCAG” here?
Answer: 8190 fluorescence intensity (a.u.)

Question: Which binding signal does the source give for “TTTGACGTTTTTTCTCGCTGCTATTATCTCCAGGGTGGGGCGGAGTCACCTAGTGCAG” here?
Answer: 17200 fluorescence intensity (a.u.)

Question: Which binding signal does the source give for “AATTGCCACCAGTCTCCATGACAACTGACATTATATATTGCGGAGTCACCTAGTGCAG” here?
Answer: 8230 fluorescence intensity (a.u.)

Question: How did the binding signal turn out when “GCCTTGTGCCGTGCTCTAAAGATTCTTGGACACCTCTTATCGGAGTCACCTAGTGCAG” was run?
Answer: 8370 fluorescence intensity (a.u.)

Question: With “ATCTATCCATATAATTAATTATATCATCCATTAGTTTTCACGGAGTCACCTAGTGCAG” as the sequence, how does the binding signal read?
Answer: 10600 fluorescence intensity (a.u.)

Question: “TGCTATTGCTCTGCCCGCATCCCTCCCTCGTCTCGTCTCGCGGAGTCACCTAGTGCAG” was tested. Which binding signal did it give?
Answer: 9050 fluorescence intensity (a.u.)

Question: For “GTTTCAAATATTTTCCCCTTCTAACTGTATTTGATCTGATCGGAGTCACCTAGTGCAG”, which binding signal is on record?
Answer: 8870 fluorescence intensity (a.u.)

Question: How did the binding signal turn out when “GTTTGCCTCCTACTCTGTACTGCGCCGTCGCTCGTAGACTCGGAGTCACCTAGTGCAG” was run?
Answer: 8410 fluorescence intensity (a.u.)

Question: How did the binding signal turn out when “GATATATATTTATAGAGGATTAAGGTAGTGGTGGAGCGCACGGAGTCACCTAGTGCAG” was run?
Answer: 9980 fluorescence intensity (a.u.)

Question: For “GCGTGAGGGAATCGCGTTCCATCTAGTTTTCCTATAGTCGCGGAGTCACCTAGTGCAG”, which binding signal is on record?
Answer: 9220 fluorescence intensity (a.u.)

Question: For “AAAGAAAGACTCAACTGCCGAGTCTCCGGTCCCACATCCACGGAGTCACCTAGTGCAG”, which binding signal is on record?
Answer: 9080 fluorescence intensity (a.u.)

Question: “GGTAAGCATATGTCTCCTTGGATTCTAATCTCATGGTTGACGGAGTCACCTAGTGCAG” was tested. Which binding signal did it give?
Answer: 10500 fluorescence intensity (a.u.)

Question: How did the binding signal turn out when “TCTTGTCCTCTACCGCCGCGACGGACCACGACCACTCCCTCGGAGTCACCTAGTGCAG” was run?
Answer: 8180 fluorescence intensity (a.u.)

Question: How did the binding signal turn out when “TTCTTCAGTTCTTCTTCTTCTAATCATGCATGTTCCCGATCGGAGTCACCTAGTGCAG” was run?
Answer: 9700 fluorescence intensity (a.u.)

Question: Which binding signal does the source give for “ATGCTGATATCTTGCAATTTGCACACACTTCTCACCTGCTCGGAGTCACCTAGTGCAG” here?
Answer: 9620 fluorescence intensity (a.u.)

Question: For “TGGCTTGTATGTTGTTCCGTAGATTGTGGTGGGTGTTGATCGGAGTCACCTAGTGCAG”, which binding signal is on record?
Answer: 12600 fluorescence intensity (a.u.)

Question: With “AGCAAAGGGCTGCTTCTACTTCTTATCCATCTCACACATCCGGAGTCACCTAGTGCAG” as the sequence, how does the binding signal read?
Answer: 8870 fluorescence intensity (a.u.)

Question: For “AATCCACGAGCACCAGCGATCGCCGTCATCCTCCGCCATGCGGAGTCACCTAGTGCAG”, which binding signal is on record?
Answer: 8410 fluorescence intensity (a.u.)

Question: How did the binding signal turn out when “CTTTTAGCTCACCCGCTGTATCTTGCATGCTGTGTTGCCACGGAGTCACCTAGTGCAG” was run?
Answer: 9250 fluorescence intensity (a.u.)

Question: How did the binding signal turn out when “TGGGTGGCTTTTGCTATTTTCTTGCTATGTACTAGTTCCACGGAGTCACCTAGTGCAG” was run?
Answer: 10000 fluorescence intensity (a.u.)

Question: Which binding signal does the source give for “TCTCCGTTCCATACTCTTCTCTCCATGCCGAACATTTCTTCGGAGTCACCTAGTGCAG” here?
Answer: 9970 fluorescence intensity (a.u.)

Question: Which binding signal does the source give for “GCTCTTCTCTCTCTCTCTATCTCTAGCATTCTCTCTCTGACGGAGTCACCTAGTGCAG” here?
Answer: 13900 fluorescence intensity (a.u.)

Question: How did the binding signal turn out when “TGAATATAGTTCCAGTAATTAATTACATTGCATATATCTCCGGAGTCACCTAGTGCAG” was run?
Answer: 8090 fluorescence intensity (a.u.)

Question: “GTCGTCGTCGTTGTTCGCTTCTGCCCGACTACCGCGTGCTCGGAGTCACCTAGTGCAG” was tested. Which binding signal did it give?
Answer: 10900 fluorescence intensity (a.u.)
